Laboratory results as given in PMC3770081.
These are yes or no findings as the source states them, for the method shown. In cells and extracts the contact can be indirect. Some results given as binding are weak or reduced against the parent protein; the word gives no strength.

Amino acid sequences for entries named in this document (tags omitted).
UniProt P46002: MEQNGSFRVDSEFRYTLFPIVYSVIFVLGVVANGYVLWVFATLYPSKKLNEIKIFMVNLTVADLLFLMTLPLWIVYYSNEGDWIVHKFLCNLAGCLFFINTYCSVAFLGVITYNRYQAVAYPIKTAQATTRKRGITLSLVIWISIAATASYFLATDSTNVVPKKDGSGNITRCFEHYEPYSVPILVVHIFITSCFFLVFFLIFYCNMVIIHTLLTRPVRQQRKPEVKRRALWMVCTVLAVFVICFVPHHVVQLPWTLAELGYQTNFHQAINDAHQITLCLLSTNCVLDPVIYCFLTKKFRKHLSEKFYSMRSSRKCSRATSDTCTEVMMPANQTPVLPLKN
UniProt P29067: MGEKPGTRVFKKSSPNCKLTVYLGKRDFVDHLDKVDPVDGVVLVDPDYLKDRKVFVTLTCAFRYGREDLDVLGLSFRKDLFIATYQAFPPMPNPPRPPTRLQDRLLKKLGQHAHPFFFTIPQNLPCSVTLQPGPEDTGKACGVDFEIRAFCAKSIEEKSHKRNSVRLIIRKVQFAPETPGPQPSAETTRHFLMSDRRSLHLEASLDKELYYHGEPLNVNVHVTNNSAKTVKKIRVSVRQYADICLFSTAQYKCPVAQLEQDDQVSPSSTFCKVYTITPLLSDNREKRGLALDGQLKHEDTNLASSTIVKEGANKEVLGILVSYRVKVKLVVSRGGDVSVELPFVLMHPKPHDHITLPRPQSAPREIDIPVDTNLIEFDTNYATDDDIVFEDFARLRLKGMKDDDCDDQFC

Target: platelet-activating factor receptor (rat (endogenous in rat aortic VSMCs)) (UniProt P46002)
Assay: co-IP; cleared lysates of rat aortic VSMCs, untreated or treated with 1 nmol/l PAF for 10 min, mixed with 2 μg of PAFR-agarose (anti-PAFR antibody) for 2 h; washed three times with lysis buffer; pellets blotted with anti-ERK, anti-P-ERK, anti-β-arrestin2 or anti-PAFR

## β-arrestin2 (from UniProt P29067 1-410)
  binding: binds
